The target of experiment [1] is Histone variant H2A.B.3 (mouse). The experiment in a line: co-IP; total cellular lysates of UV-irradiated germ cells from 28-30 day mouse testis, no formaldehyde, chromatin mechanically sheared; half treated with RNase I (800 units, 30 min at 37°C), half not; immunoprecipitated with H2A.B.3 antibodies; western blotting. On the technique in general: Immunoblotting shows a protein as a band on a membrane.

Experiment [2] shares this target. As to the kind of experiment: co-IP; round spermatids fractionated (LSBD buffer, 250 mM and 500 mM KCl); chromatin fraction sonicated and treated with benzonase; immunoprecipitation with affinity purified H2A.B.3 antibodies; western blotting.

Results are given in words; binding and its absence hold for the method and conditions named. Binding seen in cells or lysates may run through a third protein. Binding calls can cover weak binding; strength is not graded here.

B1: Splicing factor 3B subunit 1 SF3b155 (protein, UniProt Q99NB9 1-1304)
chain: MAKIAKTHEDIEAQIREIQGKKAALDEAQGVGLDSTGYYDQEIYGGSDSRFAGYVTSIAATELEDDDDDYSSSTSLLGQKKPGYHAPVALLNDIPQSTEQYDPFAEHRPPKIADREDEYKKHRRTMIISPERLDPFADGGKTPDPKMNARTYMDVMREQHLTKEEREIRQQLAEKAKAGELKVVNGAAASQPPSKRKRRWDQTADQTPGATPKKLSSWDQAETPGHTPSLRWDETPGRAKGSETPGATPGSKIWDPTPSHTPAGAATPGRGDTPGHATPGHGGATSSARKNRWDETPKTERDTPGHGSGWAETPRTDRGGDSIGETPTPGASKRKSRWDETPASQMGGSTPVLTPGKTPIGTPAMNMATPTPGHIMSMTPEQLQAWRWEREIDERNRPLSDEELDAMFPEGYKVLPPPAGYVPIRTPARKLTATPTPLGGMTGFHMQTEDRTMKSVNDQPSGNLPFLKPDDIQYFDKLLVDVDESTLSPEEQKERKIMKLLLKIKNGTPPMRKAALRQITDKAREFGAGPLFNQILPLLMSPTLEDQERHLLVKVIDRILYKLDDLVRPYVHKILVVIEPLLIDEDYYARVEGREIISNLAKAAGLATMISTMRPDIDNMDEYVRNTTARAFAVVASALGIPSLLPFLKAVCKSKKSWQARHTGIKIVQQIAILMGCAILPHLRSLVEIIEHGLVDEQQKVRTISALAIAALAEAATPYGIESFDSVLKPLWKGIRQHRGKGLAAFLKAIGYLIPLMDAEYANYYTREVMLILIREFQSPDEEMKKIVLKVVKQCCGTDGVEANYIKTEILPPFFKHFWQHRMALDRRNYRQLVDTTVELANKVGAAEIISRIVDDLKDEAEQYRKMVMETIEKIMGNLGAADIDHKLEEQLIDGILYAFQEQTTEDSVMLNGFGTVVNALGKRVKPYLPQICGTVLWRLNNKSAKVRQQAADLISRTAVVMKTCQEEKLMGHLGVVLYEYLGEEYPEVLGSILGALKAIVNVIGMHKMTPPIKDLLPRLTPILKNRHEKVQENCIDLVGRIADRGAEYVSAREWMRICFELLELLKAHKKAIRRATVNTFGYIAKAIGPHDVLATLLNNLKVQERQNRVCTTVAIAIVAETCSPFTVLPALMNEYRVPELNVQNGVLKSLSFLFEYIGEMGKDYIYAVTPLLEDALMDRDLVHRQTASAVVQHMSLGVYGFGCEDSLNHLLNYVWPNVFETSPHVIQAVMGALEGLRVAIGPCRMLQYCLQGLFHPARKVRDVYWKIYNSIYIGSQDALIAHYPRIYNDDKNTYIRYDLDYIL
As to B1, the binding result in experiment [1] and in experiment [2] was “binds” throughout.

The values are drawn from PMC5345878.
